Measured values from PubChem BioAssay AID1241 (SRMLSC, 2008).
About 840 (70%) of roughly 1,200 compounds were called active. The rule behind the calls is not given here. The set was probably picked from earlier hits. Only a part is listed here, and it is no random draw. Measured potencies and affinities stand elsewhere.

Assay: compounds inducing NF-kB luciferase expression – cell-based, SH-SY5Y, dose response (AID 1241)
Conditions: SH-SY5Y NF-kB promoter luciferase reporter; at 30 µM (top of the series)

Question: With `O=C(c1cc(-c2ccccc2)on1)N1CCC2(CC1)OCCO2` as the compound, how does the fold induction over control read?
Answer: inactive: 2.55

Question: Which fold induction over control does the source give for `O=C(c1ccc(Br)cc1)C12CN3CN(CN(C3)C1)C2` here?
Answer: inactive: 1.09

Question: With `CNC(=O)Oc1ccc(-c2cn3cc(Cl)ccc3n2)cc1` as the compound, how does the fold induction over control read?
Answer: inactive: 16.2

Question: With `COc1ccc(-c2cc(=Nc3ccccc3)c3cc(C)ccc3o2)cc1` as the compound, how does the fold induction over control read?
Answer: inactive: 1.71

Question: With `N=C1c2ccccc2CN1CC(=O)c1ccccc1` as the compound, how does the fold induction over control read?
Answer: inactive: 7.91

Question: For `Cc1nc(Cl)sc1C(=O)Nc1ccc2ccccc2c1`, which fold induction over control is on record?
Answer: inactive: 6.97
